PubChem BioAssay AID686937, Drosophila RNAi Screening Center | 2013
In all, the deposit lists about 23,000 reagents; below is a random part of those that have a named target and a result. 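Reduced-secretion tags in replicate 1 do not always agree with the z-scores; no criterion for assigning the tags was given.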 Reagents against one gene are numbered here. A plus sign joins genes that one reagent is predicted to hit. Not all columns of the deposit are shown. Not given: the amount of reagent.

Test: 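Genes in the fly needed for secretion of protein constitutively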 (primary screen)
Cells: Drosophila S2 cells expressing secreted horseradish peroxidase
Knock-down reagent: long dsRNA against Drosophila genes
Timing: about 5.5 days (5 days dsRNA, then 12 h reporter induction)
Challenge: reporter expression induced after 5 days of dsRNA, read 12 h later; inducer not stated
Detection: 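After 5 days of dsRNA and 12 h of reporter induction, medium peroxidase read by chemiluminescence and scored as per-plate z-score; higher values mean more reporter released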
Direction: z-score: higher = more reporter secreted into medium

dyl #1 scored z-score, replicate 1 = 0.08.
Against dyl #2 the deposit lists z-score, replicate 1 = 0.39.
Knock-down of Sodh1 gave: z-score, replicate 1 = 0.35.
fuss #1 showed z-score, replicate 1 = 0.35.
After knock-down of fuss #2 the results were z-score, replicate 1 = 0.01.
For gammaSnap1, the values are z-score, replicate 1 = 0.13.
For Dtwd2 + Obp84a, the values are z-score, replicate 1 = 0.18.
Against CG33160, the values are z-score, replicate 1 = 0.42.
Depletion of CG12268 came out at: z-score, replicate 1 = 0.4.
With knock-down of kn #1, the record shows z-score, replicate 1 = 0.41.
kn #2 gave z-score, replicate 1 = 0.02.
kn #3 showed z-score, replicate 1 = -0.13.
Against kn #4, the entry reads z-score, replicate 1 = 0.17.
After knock-down of kn #5 the results were z-score, replicate 1 = -0.24.
With knock-down of CG2955 the results were z-score, replicate 1 = 0.38.
With knock-down of Topors the results were z-score, replicate 1 = 0.53.
Against Golgin104, the values are z-score, replicate 1 = 0.06.
Depletion of Polr3F came out at: z-score, replicate 1 = 0.1.
For SerRS-m, the values are z-score, replicate 1 = 0.26.
For CG31524, the entry reads z-score, replicate 1 = 0.79.
For SkpB the deposit lists z-score, replicate 1 = 0.34.
sqd #1 gave z-score, replicate 1 = -0.07.
sqd #2 scored z-score, replicate 1 = 0.68.
Against sqd #3, the values are z-score, replicate 1 = -0.52.
Against JIL-1 the deposit lists z-score, replicate 1 = 0.52.
After knock-down of heca, the screen gave z-score, replicate 1 = -1.58; phenotype, replicate 1 = reduced secretion.
With knock-down of CG14186 the results were z-score, replicate 1 = 0.51.
With knock-down of Hers + amn the results were z-score, replicate 1 = 0.17.
CG14341 scored z-score, replicate 1 = -0.07.
CG12637 scored z-score, replicate 1 = 0.15.
For CG43759 #1, the values are z-score, replicate 1 = 0.3.
For CG43759 #2, the values are z-score, replicate 1 = 0.22.
With knock-down of CG13226, the screen gave z-score, replicate 1 = 0.24.
Depletion of CheB53a resulted in: z-score, replicate 1 = 0.
Against CG17224, the entry reads z-score, replicate 1 = 0.38.
Against Cyp6a22 the deposit lists z-score, replicate 1 = 0.28.
Against Plc21C, the values are z-score, replicate 1 = 0.43.
After knock-down of Not11, the screen gave z-score, replicate 1 = 0.28.
CG2070 showed z-score, replicate 1 = -0.17.
Tsp68C gave z-score, replicate 1 = 0.01.
